# Experimental data published in the supplement of paper PMC12542422.
# Where a name gives a salt, the structure may show the parent alone. ± gives the standard deviation of the averaged measurements. The list shows a part of the results. Values are raw readings; no control value is given beside them.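 HeLa cells imaged for ribosome-assembly readouts (ENP1 staining with or without export block, or inducible tagged ribosomal protein reporters); machine learning classified each cell's signal location against solvent (DMSO) controls. Hits exceeded the DMSO false-positive mean by five standard deviations, then were visually confirmed; three biological replicates.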
# Tested on: HeLa K (ENP1 immunofluorescence, no LMB)
# Experiment: fraction of cells with nucleolar or nucleolar/nucleoplasmic ENP1 signal (MainHitrate); higher = more cells with nucleolar/nuclear readout signal (for ENP1 -LMB: less RNAPI inhibition; for +LMB ENP1 and RP reporters: stronger nuclear/nucleolar retention, i.e. ribosome biogenesis defect)
# Conditions: concentration: 1 µM; treatment time: 6 h; ENP1 -LMB; leptomycin B: none
row,SMILES,fraction
1,CCc1c(Cl)c(O)c(Cl)c(O)c1C(=O)O[C@H]1[C@H](O)[C@H](OC)[C@H](OC/C2=C\C=C\C[C@H](O)/C(C)=C/[C@H](CC)[C@@H](O[C@@H]3OC(C)(C)[C@@H](OC(=O)C(C)C)[C@H](O)[C@@H]3O)/C(C)=C/C(C)=C/C[C@@H]([C@@H](C)O)OC2=O)O[C@@H]1C [Fidaxomicin],0.987 ± 0.023
2,COc1ccc(CN2CCN(C(c3ccc(F)cc3)c3ccc(F)cc3)CC2)c(OC)c1OC [Lomerizine HCl],0.986 ± 0.024
3,CC(N/C(=N\C#N)Nc1ccncc1)C(C)(C)C (centres undefined) [Pinacidil],0.9985 ± 0.0027
4,CO[C@H]1/C=C/O[C@@]2(C)Oc3c(C)c(O)c4c(O)c(c(/C=N/N5CCN(C6CCCC6)CC5)c(O)c4c3C2=O)NC(=O)/C(C)=C\C=C\[C@H](C)[C@H](O)[C@@H](C)[C@@H](O)[C@@H](C)[C@H](OC(C)=O)[C@@H]1C [Rifapentine (Priftin)],0.9991 ± 0.0015
5,CC(C)NCC(O)COc1ccc(CCOCC2CC2)cc1 (centres undefined) [Betaxolol (Betoptic)],0.992 ± 0.013
6,N=C(N)c1ccc(OCCCCCOc2ccc(C(=N)N)cc2)cc1 [Pentamidine],0.979 ± 0.037
7,COc1ccc2cc1Oc1ccc(cc1)C[C@H]1c3c(cc4c(c3Oc3cc5c(cc3OC)CCN(C)[C@@H]5C2)OCO4)CCN1C [Cepharanthine],0.9965 ± 0.0061
8,COC(=O)C1=C(C)NC(C)=C(C(=O)OC2CCCN(Cc3ccccc3)C2)C1c1cccc([N+](=O)[O-])c1 (centres undefined) [Benidipine hydrochloride],0.988 ± 0.021
9,CC[C@H](C)C(=O)O[C@H]1C[C@H](O)C=C2C=C[C@H](C)[C@H](CC[C@@H](O)C[C@@H](O)CC(=O)O)[C@H]21 [Pravastatin sodium],0.988 ± 0.021
10,Nc1ccn([C@@H]2O[C@H](CO)[C@@H](O)[C@H]2O)c(=O)n1 [Cytidine],0.993 ± 0.012
11,CCN[C@H]1C[C@H](C)S(=O)(=O)c2sc(S(N)(=O)=O)cc21 [Dorzolamide HCL],0.9989 ± 0.0018
12,O=C1CN2Cc3c(ccc(Cl)c3Cl)N=C2N1 [Anagrelide HCl],0.975 ± 0.043
13,CCOC(=O)O[C@]1(C(=O)OCCl)CC[C@H]2[C@@H]3CCC4=CC(=O)C=C[C@]4(C)[C@H]3[C@@H](O)C[C@@]21C [Loteprednol etabonate],0.9982 ± 0.0032
14,Cc1ccc(S(=O)(=O)NC(=O)NN2CCCCCC2)cc1 [Tolazamide],0.917 ± 0.14
15,CC[C@H]1OC(=O)[C@H](C)[C@@H](O[C@H]2C[C@@](C)(OC)[C@@H](O)[C@H](C)O2)[C@H](C)[C@@H](O[C@@H]2O[C@H](C)C[C@H](N(C)C)[C@H]2O)[C@](C)(O)C[C@@H](C)/C(=N\OCOCCOC)[C@H](C)[C@@H](O)[C@]1(C)O [Roxithromycin (Roxl-150)],0.9963 ± 0.0064
16,CC(C)[C@H]1CC[C@H](C(=O)N[C@H](Cc2ccccc2)C(=O)O)CC1 [Nateglinide (Starlix)],0.992 ± 0.015
17,CC(C)C[C@H](NC(=O)[C@H](CCc1ccccc1)NC(=O)CN1CCOCC1)C(=O)N[C@@H](Cc1ccccc1)C(=O)N[C@@H](CC(C)C)C(=O)[C@@]1(C)CO1 [Carfilzomib (PR-171)],0.971 ± 0.05
18,COc1ccc(Cl)cc1C(=O)NCCc1ccc(S(=O)(=O)NC(=O)NC2CCCCC2)cc1 [Glyburide (Diabeta)],0.9986 ± 0.0025
19,CN(C)[C@@H]1C(O)=C(C(N)=O)C(=O)[C@@]2(O)C(O)=C3C(=O)c4c(O)cccc4[C@@](C)(O)[C@H]3[C@H](O)[C@@H]12 [Oxytetracycline (Terramycin)],0.9994 ± 0.001
20,CC(=O)O[C@H]1C[C@@H]2CC[C@@H]3[C@H](CC[C@@]4(C)[C@H]3C[C@H]([N+]3(C)CCCCC3)[C@@H]4OC(C)=O)[C@@]2(C)C[C@@H]1N1CCCCC1 [Vecuronium Bromide],0.9979 ± 0.0037

# Copied from the entries so far for reference:
row,SMILES,fraction
13,CCOC(=O)O[C@]1(C(=O)OCCl)CC[C@H]2[C@@H]3CCC4=CC(=O)C=C[C@]4(C)[C@H]3[C@@H](O)C[C@@]21C [Loteprednol etabonate],0.9982 ± 0.0032
14,Cc1ccc(S(=O)(=O)NC(=O)NN2CCCCCC2)cc1 [Tolazamide],0.917 ± 0.14
15,CC[C@H]1OC(=O)[C@H](C)[C@@H](O[C@H]2C[C@@](C)(OC)[C@@H](O)[C@H](C)O2)[C@H](C)[C@@H](O[C@@H]2O[C@H](C)C[C@H](N(C)C)[C@H]2O)[C@](C)(O)C[C@@H](C)/C(=N\OCOCCOC)[C@H](C)[C@@H](O)[C@]1(C)O [Roxithromycin (Roxl-150)],0.9963 ± 0.0064
16,CC(C)[C@H]1CC[C@H](C(=O)N[C@H](Cc2ccccc2)C(=O)O)CC1 [Nateglinide (Starlix)],0.992 ± 0.015
17,CC(C)C[C@H](NC(=O)[C@H](CCc1ccccc1)NC(=O)CN1CCOCC1)C(=O)N[C@@H](Cc1ccccc1)C(=O)N[C@@H](CC(C)C)C(=O)[C@@]1(C)CO1 [Carfilzomib (PR-171)],0.971 ± 0.05
18,COc1ccc(Cl)cc1C(=O)NCCc1ccc(S(=O)(=O)NC(=O)NC2CCCCC2)cc1 [Glyburide (Diabeta)],0.9986 ± 0.0025
19,CN(C)[C@@H]1C(O)=C(C(N)=O)C(=O)[C@@]2(O)C(O)=C3C(=O)c4c(O)cccc4[C@@](C)(O)[C@H]3[C@H](O)[C@@H]12 [Oxytetracycline (Terramycin)],0.9994 ± 0.001
20,CC(=O)O[C@H]1C[C@@H]2CC[C@@H]3[C@H](CC[C@@]4(C)[C@H]3C[C@H]([N+]3(C)CCCCC3)[C@@H]4OC(C)=O)[C@@]2(C)C[C@@H]1N1CCCCC1 [Vecuronium Bromide],0.9979 ± 0.0037

# The list goes on.

row,SMILES,fraction
1,COc1ccc2[nH]c([S@@+]([O-])Cc3ncc(C)c(OC)c3C)nc2c1 [Esomeprazole sodium (Nexium)],0.99 ± 0.018
2,CNS(=O)(=O)Cc1ccc2[nH]cc(CCN(C)C)c2c1 [Sumatriptan succinate],0.9983 ± 0.0029
3,O=C(O)/C=C/c1ccc(Cn2ccnc2)cc1 [Ozagrel],0.9962 ± 0.0065
4,COc1c(C)c2c(c(O)c1C/C=C(\C)CCC(=O)OCCN1CCOCC1)C(=O)OC2 [Mycophenolate mofetil (CellCept)],0.729 ± 0.47
5,N#CC[C@H](C1CCCC1)n1cc(-c2ncnc3[nH]ccc23)cn1,0.9988 ± 0.0021
6,Nc1nc2ccc(OC(F)(F)F)cc2s1 [Riluzole (Rilutek)],0.9975 ± 0.0043
7,O=C(O)c1cc(=O)c2c(OCC(O)COc3cccc4oc(C(=O)O)cc(=O)c34)cccc2o1 [Disodium Cromoglycate],0.99 ± 0.017
8,Cc1cccc(Nc2ccccc2C(=O)O)c1C [Mefenamic acid],0.984 ± 0.027
9,Nc1nc(F)nc2c1ncn2[C@@H]1O[C@H](COP(=O)(O)O)[C@@H](O)[C@@H]1O [Fludarabine Phosphate (Fludara)],0.9983 ± 0.003
10,CN(C)c1nc(N(C)C)nc(N(C)C)n1 [Altretamine (Hexalen)],0.9984 ± 0.0027
11,Nc1nc(Cl)nc2c1ncn2[C@@H]1O[C@H](CO)[C@@H](O)[C@@H]1F [Clofarabine],0.9963 ± 0.0064
12,Cc1ccccc1C(OCCN(C)C)c1ccccc1 (centres undefined) [Orphenadrine citrate (Norflex)],0.9967 ± 0.0058
13,COc1ccc(CN(CCN(C)C)c2ccccn2)cc1 [Pyrilamine Maleate],0.995 ± 0.0087
14,CCC(C)n1ncn(-c2ccc(N3CCN(c4ccc(OCC5COC(Cn6cncn6)(c6ccc(Cl)cc6Cl)O5)cc4)CC3)cc2)c1=O (centres undefined) [Itraconazole (Sporanox)],0.9977 ± 0.0041
15,NC(=O)c1cccnc1 [Nicotinamide (Niacinamide)],0.989 ± 0.019
16,N[C@@H](Cc1ccc(O)c(O)c1)C(=O)O [Levodopa (Sinemet)],0.9989 ± 0.002
17,C[C@]12CCC3=C4CCC(=O)C=C4CC[C@H]3[C@@H]1CC[C@@]2(O)CC#N [Dienogest],0.9979 ± 0.0037
18,CC(C)/N=c1\cc2n(-c3ccc(Cl)cc3)c3ccccc3nc-2cc1Nc1ccc(Cl)cc1 [Clofazimine],0.989 ± 0.018
19,CO[C@H]1/C=C/O[C@@]2(C)Oc3c(C)c(O)c4c(c3C2=O)C2=NC3(CCN(CC(C)C)CC3)NC2=C(NC(=O)/C(C)=C\C=C\[C@H](C)[C@H](O)[C@@H](C)[C@@H](O)[C@@H](C)[C@H](OC(C)=O)[C@@H]1C)C4=O [Rifabutin (Mycobutin)],0.9985 ± 0.0026
